Source: patent US12351597B2, “Substituted biphenyl or phenylheteroaryl-mannosides as antagonists of FimH” (GLAXOSMITHKLINE INTELLECTUAL PROPERTY DEVELOPMENT LIMITED, priority 2019, dated 2025)
For at least one compound, name, drawing or mass did not settle the structure.

Amino acid sequences for entries named in this document (tags omitted).
UniProt Q1R2J4, entry or part of it: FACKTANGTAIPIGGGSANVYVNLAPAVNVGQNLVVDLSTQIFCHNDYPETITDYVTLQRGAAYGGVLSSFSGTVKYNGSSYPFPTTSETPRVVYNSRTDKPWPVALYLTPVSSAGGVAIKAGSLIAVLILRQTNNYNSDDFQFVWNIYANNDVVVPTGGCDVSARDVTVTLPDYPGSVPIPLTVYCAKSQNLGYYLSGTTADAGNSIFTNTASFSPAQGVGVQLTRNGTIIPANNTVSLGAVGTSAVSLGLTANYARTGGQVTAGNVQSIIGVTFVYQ

Target: T1, FimH (Escherichia coli, UniProt Q1R2J4)
T1 construct: endogenous in cells; host or cells: E. coli UTI89 whole bacteria (piliated), with guinea pig red blood cells
Experiment: Hemagglutination inhibition assay (HAI)
Type: cell-based
Conditions: HAI titer / EC>90: concentration reducing bacterial agglutination of guinea pig red blood cells by >90%; UTI89 bacteria
From the text: “HAI titer or EC>90” is that concentration of the FimH inhibitor/antagonist which reduces the bacterial agglutination of guinea pig red blood cells by greater than 90%.
The activities of the Examples 1-40 compounds above as FimH antagonists/inhibitors were obtained by the following assay(s), and values are provided in Table 1. The values not provided mean that the activities have not yet been tested.
Hemagglutination Inhibition Assay (HAI)
The hemagglutination inhibition (HAI) assay was performed with UTI89 bacteria and guinea pig red blood cells, as previously described (S. J. Hultgren, W. R. Schwan, A. J. Schaeffer, J. L. Duncan Infect. Immun. 1986, 54, 613-620 and Jarvis, C.; Han, Z.; Kalas, V.; Klein, R.; Pinkner, J. S.; Ford, B.; Binkley, J.; Cusumano, C. K.; Cusumano, Z.; Mydock-McGrane, L.; Hultgren, S. J.; Janetka, J. W., ChemMedChem 2016, 11, 367-373). Values not listed were not tested.

For `Cc1cc(-c2nccc(C(F)(F)F)n2)ccc1O[C@H]1O[C@H](CO)[C@@H](O)[C@H](O)[C@@H]1O` [Example 25], the “HAI nM” value was ““+++” (50-200)”.

For `OC[C@H]1O[C@H](Oc2c(F)cc(-c3ncc(C(F)(F)F)cn3)cc2C(F)(F)F)[C@@H](O)[C@@H](O)[C@@H]1O` [Example 30], the “HAI nM” value was ““++++” (<50)”.

With `Cc1cnc(-c2ccc(O[C@H]3O[C@H](CO)[C@@H](O)[C@H](O)[C@@H]3O)c(C)c2)cn1` [Example 17] the “HAI nM” value was ““+++” (50-200)”.

In the case of `OC[C@H]1O[C@H](Oc2c(F)cc(-c3ccc(C(F)(F)F)nc3)cc2C(F)(F)F)[C@@H](O)[C@@H](O)[C@@H]1O` [Example 35], the “HAI nM” value is reported as ““+++” (50-200)”.
